Reference: US11478489B2, “Selective accretion of cytoprotectant in radiation-sensitive tissues and uses thereof” (WILLIAM MARSH RICE UNIVERSITY, priority 2017, dated 2022)
At least one structure is not confirmed: it was looked up by name or label, or the drawing left a doubt.

How the values were obtained:
[1] = system: duodenal and jejunal crypts; experiment: Microcolony assay (Withers-Elkind), surviving crypts after 12 Gy whole body irradiation; assay type: in vivo, C3Hf/KamLaw mice
Protocol: WR-2721 Trihydrate (Toronto Research Chemicals Inc; North York, Ontario, Canada) was diluted in PBS (with 0.2 conversion factor to adjust for trihydrate) and was administered by IP injection at 25 or 250 or 500 mg/kg or by oral gavage at doses […] 150 to 1000 mg/kg in a volume of 0.1 ml.
For the microcolony assay, a single dose of 12 Gy whole body irradiation (WBI) was administered 15 min or 30 min after WR-2721 treatment using a Pantak 300 x-ray unit (Pantak; East Haven, Conn.), with 300 kVp X-rays at a dose rate of 1.84 Gy/min. Un-anesthetized mice were loosely restrained in a well ventilated 15×15×2 cm Lucite box during WBI.
Viable jejunal crypts were quantified following a single dose of 12 Gy WBI+/− a single oral dose of WR-2721 given at 15 min or 30 min prior to radiation using the microcolony assay. Mice were euthanized 3 days and 14 hours after receiving WBI, and segments of jejunum and duodenum were resected and fixed in 10% neutral buffered formalin. Tissue was then embedded in paraffin, and four transverse slices of jejunum and duodenum were stained with hematoxylin and eosin per mouse. The number of regenerating crypts per transverse section was scored microscopically and averaged over the 4 sections per animal for each tissue type. All slides were scored by a single observer blinded to treatment group. […]

[2] = system: KPC mice with spontaneous pancreatic cancer; experiment: Survival of tumor-bearing KPC mice after SBRT; assay type: in vivo, Kras LSL/+; Trp53 FL/+; Ptf1a Cre/+ (KPC) mice; conditions: SBRT 12.5 Gy x 5 + oral WR-2721
Protocol: For survival studies, SBRT was given for 5 consecutive days 25 min after administration of vehicle or WR-2721 using the XRAD 225Cx small animal irradiator (Precision X-Ray; North Branford, Conn.) fitted with a conformal collimator to produce a circular 10 mm diameter radiation field. Mice were anesthetized with isoflurane gas for CT imaging and irradiation. Each mouse was imaged using the XRAD 225Cx cone beam CT prior to irradiation in order to align the radiation field so that the cranial edge of the field was located 5 mm below the diaphragm at the isocenter of the mouse. This field exposed the pancreas, duodenum, jejunum and liver to radiation. Radiation was administered anterior-posterior-posterio-anterior (AP-PA).
Mice were treated with WR-2721 or vehicle by intraperitoneal (IP) injection or oral gavage followed by SBRT and monitored on a daily basis. […] Time to euthanasia and percent survival were assessed.
Further confirmation is illustrated in FIG. 6. KPC Mice were enrolled onto the study shortly after diagnosis and were treated to vehicle alone, SBRT with vehicle or SBRT with oral WR-2721. The SBRT field was 10 mm given AP/PA to the tumor and the dose was 12.5 Gy per day for 5 consecutive days for a total dose of 62.5 Gy (EQD2=117.2 Gy; α/β10=140.6). The tumors were identified by micro CT and ultrasound on a daily basis without fiducials. […]

[3] = endorectal infusion, cited from earlier work

**Q.** Which results are given for `NCCCNCCSP(=O)(O)O` [WR-2721, S-2-(3-aminopropylamino)ethyl dihydrogen phosphorothioate]?
**A.** crypt survival in the duodenum ([1]; oral WR-2721 15 or 30 min prior to 12 Gy WBI, compared to vehicle controls): improved crypt survival; crypt survival in the jejunum ([1]; oral WR-2721 15 min and 30 min prior to 12 Gy WBI): promoted crypt survival; survival versus SBRT+VEH or VEH alone (Kaplan-Meier) [2]: significant improved survival; toxicity profiles after pelvic radiation ([3]; Phase I studies): improve toxicity profiles; outcome of larger randomized study [3]: failed to meet endpoints
